Assay results from the supplement of paper PMC10849652.
The other results are listed elsewhere or left out.

The chains behind the UniProt entries cited, without tags or fusion partners. Where a name states a change or a piece, a line headed by the entry shows the natural chain unless it says otherwise.
UniProt Q7Z7A4: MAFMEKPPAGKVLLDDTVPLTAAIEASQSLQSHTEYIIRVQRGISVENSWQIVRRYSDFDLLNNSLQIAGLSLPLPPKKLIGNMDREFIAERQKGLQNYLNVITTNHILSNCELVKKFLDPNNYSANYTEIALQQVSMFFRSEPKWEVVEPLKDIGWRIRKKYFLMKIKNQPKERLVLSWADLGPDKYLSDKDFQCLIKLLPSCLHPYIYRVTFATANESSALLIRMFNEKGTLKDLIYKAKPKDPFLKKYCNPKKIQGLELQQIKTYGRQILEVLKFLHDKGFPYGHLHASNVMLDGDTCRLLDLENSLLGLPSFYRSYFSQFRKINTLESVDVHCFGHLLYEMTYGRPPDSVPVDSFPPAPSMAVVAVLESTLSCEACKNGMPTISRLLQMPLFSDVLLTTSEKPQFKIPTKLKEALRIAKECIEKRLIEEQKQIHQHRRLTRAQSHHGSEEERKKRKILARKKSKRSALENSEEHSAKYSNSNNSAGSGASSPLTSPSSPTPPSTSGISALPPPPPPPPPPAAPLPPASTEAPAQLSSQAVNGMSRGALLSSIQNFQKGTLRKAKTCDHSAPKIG
UniProt Q9BRQ0: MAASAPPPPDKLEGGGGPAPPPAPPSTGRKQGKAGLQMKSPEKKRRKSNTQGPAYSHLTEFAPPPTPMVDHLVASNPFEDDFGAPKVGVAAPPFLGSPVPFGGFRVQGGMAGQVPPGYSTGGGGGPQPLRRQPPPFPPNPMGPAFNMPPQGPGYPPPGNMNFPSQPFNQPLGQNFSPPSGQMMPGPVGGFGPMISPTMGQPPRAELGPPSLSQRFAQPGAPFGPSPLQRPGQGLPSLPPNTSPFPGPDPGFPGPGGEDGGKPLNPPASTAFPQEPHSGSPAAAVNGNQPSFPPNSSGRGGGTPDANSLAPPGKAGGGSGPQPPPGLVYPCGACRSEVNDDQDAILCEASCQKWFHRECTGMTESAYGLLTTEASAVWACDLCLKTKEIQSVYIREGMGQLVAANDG
UniProt Q9H3S7: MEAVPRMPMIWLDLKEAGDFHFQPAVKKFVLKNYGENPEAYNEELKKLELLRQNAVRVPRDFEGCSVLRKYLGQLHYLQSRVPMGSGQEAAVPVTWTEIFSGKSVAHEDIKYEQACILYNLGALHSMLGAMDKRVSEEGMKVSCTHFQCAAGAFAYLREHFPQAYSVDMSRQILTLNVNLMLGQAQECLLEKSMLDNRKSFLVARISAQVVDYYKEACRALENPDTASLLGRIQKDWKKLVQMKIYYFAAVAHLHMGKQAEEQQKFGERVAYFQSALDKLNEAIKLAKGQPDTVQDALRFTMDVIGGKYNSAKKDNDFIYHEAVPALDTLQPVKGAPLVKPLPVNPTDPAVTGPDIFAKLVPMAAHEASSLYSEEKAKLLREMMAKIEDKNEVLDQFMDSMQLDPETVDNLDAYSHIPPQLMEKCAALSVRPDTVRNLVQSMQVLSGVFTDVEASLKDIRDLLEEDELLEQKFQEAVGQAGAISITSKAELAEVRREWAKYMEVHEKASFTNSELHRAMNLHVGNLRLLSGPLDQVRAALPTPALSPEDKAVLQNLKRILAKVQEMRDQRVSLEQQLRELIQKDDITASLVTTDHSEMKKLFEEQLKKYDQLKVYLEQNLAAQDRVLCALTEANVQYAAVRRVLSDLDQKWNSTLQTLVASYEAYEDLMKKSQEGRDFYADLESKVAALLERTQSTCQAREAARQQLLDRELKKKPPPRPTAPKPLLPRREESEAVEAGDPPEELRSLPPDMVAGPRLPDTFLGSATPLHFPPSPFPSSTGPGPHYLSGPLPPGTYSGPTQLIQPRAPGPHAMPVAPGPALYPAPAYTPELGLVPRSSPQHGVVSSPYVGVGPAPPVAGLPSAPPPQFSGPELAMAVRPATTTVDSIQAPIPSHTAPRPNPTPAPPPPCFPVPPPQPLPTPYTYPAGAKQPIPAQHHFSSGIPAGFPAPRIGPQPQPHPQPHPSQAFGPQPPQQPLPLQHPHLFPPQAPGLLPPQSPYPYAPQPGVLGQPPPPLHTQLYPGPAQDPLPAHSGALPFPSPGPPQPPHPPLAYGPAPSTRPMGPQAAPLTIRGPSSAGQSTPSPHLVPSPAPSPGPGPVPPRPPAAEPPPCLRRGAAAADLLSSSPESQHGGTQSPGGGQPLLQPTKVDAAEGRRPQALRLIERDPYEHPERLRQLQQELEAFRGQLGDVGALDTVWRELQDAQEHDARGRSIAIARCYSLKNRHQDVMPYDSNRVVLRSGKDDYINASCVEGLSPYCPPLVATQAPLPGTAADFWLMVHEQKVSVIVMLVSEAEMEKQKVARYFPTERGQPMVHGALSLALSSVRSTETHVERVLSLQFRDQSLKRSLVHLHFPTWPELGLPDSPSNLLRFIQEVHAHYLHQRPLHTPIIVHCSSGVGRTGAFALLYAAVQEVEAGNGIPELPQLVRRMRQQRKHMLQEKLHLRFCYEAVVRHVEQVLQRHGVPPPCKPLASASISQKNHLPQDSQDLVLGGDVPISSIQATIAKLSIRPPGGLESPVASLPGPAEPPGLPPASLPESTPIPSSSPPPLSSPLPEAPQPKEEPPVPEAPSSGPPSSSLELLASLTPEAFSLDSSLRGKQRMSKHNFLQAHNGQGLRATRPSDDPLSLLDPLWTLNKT
UniProt Q93096: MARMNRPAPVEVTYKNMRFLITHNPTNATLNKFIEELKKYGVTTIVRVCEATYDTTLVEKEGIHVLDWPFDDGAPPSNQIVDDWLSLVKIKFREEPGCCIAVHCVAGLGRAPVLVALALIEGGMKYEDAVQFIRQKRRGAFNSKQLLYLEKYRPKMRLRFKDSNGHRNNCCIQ
UniProt O95997: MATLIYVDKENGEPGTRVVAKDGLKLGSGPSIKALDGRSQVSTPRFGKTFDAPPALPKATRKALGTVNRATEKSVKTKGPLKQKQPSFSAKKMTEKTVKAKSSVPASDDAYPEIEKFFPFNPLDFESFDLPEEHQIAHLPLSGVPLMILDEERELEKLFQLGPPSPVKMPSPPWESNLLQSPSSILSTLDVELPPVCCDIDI
UniProt Q6GMV3: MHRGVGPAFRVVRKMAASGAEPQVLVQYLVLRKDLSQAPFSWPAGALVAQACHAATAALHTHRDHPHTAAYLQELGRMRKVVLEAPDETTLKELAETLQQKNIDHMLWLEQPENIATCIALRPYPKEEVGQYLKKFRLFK
UniProt Q9H0K6: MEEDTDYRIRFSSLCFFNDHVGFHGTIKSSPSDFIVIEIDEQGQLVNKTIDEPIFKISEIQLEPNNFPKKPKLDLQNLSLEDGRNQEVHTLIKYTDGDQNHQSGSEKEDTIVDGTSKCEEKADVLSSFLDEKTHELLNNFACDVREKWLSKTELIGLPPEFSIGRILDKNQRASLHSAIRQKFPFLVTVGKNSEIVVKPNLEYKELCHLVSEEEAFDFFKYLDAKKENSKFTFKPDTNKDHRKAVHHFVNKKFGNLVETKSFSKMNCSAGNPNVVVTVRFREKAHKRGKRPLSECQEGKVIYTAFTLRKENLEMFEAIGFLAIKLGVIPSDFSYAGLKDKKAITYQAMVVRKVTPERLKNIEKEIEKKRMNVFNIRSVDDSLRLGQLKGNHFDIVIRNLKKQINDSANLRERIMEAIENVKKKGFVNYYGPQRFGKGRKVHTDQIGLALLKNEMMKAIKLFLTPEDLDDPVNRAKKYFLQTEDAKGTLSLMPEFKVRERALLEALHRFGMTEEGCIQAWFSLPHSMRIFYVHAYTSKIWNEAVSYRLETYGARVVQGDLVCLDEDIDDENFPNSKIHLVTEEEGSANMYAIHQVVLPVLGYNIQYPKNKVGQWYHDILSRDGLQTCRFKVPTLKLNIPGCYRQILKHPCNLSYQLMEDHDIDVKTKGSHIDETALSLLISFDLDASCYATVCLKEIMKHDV
UniProt O00233: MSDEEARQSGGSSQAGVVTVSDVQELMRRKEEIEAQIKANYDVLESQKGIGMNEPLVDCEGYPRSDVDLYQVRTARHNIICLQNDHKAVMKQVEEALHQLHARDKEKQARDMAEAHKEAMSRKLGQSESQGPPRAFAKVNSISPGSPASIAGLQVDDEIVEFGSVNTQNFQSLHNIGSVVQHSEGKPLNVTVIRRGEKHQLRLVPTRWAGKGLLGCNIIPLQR
UniProt P11216: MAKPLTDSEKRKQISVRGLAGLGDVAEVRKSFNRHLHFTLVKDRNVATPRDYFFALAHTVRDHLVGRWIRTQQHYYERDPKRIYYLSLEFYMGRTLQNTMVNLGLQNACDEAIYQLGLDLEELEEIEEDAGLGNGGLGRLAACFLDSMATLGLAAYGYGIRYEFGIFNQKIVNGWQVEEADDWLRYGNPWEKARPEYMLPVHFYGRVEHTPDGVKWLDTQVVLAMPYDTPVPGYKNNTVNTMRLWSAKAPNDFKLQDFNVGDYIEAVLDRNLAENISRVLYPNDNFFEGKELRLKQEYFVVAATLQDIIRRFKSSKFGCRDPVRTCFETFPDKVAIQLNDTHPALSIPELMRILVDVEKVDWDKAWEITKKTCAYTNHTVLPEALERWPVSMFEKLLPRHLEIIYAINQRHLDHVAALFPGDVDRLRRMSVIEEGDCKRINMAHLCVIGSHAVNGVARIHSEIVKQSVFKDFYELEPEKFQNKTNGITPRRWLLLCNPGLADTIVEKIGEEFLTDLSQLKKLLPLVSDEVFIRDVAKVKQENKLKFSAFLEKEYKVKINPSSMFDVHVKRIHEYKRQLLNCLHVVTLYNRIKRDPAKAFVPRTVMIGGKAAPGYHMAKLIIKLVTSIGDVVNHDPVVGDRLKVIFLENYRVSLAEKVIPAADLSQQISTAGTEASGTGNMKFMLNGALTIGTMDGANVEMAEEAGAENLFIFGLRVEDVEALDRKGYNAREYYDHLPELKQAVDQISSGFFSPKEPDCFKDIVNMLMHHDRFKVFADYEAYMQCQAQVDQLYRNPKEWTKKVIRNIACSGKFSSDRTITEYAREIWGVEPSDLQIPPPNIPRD
UniProt P28070, whole entry, looked up: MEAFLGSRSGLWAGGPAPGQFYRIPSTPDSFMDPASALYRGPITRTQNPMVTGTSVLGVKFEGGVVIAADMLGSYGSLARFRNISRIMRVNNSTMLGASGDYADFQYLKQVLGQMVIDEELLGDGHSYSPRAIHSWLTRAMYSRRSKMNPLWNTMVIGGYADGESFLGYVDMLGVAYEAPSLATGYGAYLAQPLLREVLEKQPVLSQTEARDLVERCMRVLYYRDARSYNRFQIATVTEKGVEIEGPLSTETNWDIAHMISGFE
UniProt Q8WXF1: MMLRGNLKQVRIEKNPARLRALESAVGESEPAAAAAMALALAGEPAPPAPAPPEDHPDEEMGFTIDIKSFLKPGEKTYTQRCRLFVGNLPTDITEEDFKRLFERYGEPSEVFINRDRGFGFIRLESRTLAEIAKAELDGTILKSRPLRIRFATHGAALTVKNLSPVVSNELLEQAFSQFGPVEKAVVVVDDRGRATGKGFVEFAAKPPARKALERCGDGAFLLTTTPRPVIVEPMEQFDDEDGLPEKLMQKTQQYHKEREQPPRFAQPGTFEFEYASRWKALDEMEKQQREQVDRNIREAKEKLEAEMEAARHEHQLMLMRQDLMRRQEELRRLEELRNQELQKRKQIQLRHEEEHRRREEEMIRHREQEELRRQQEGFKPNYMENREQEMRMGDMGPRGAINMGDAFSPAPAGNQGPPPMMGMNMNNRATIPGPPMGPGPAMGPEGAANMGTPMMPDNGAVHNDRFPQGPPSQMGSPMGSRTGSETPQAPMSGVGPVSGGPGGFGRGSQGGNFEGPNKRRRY
UniProt P17980, whole entry, looked up: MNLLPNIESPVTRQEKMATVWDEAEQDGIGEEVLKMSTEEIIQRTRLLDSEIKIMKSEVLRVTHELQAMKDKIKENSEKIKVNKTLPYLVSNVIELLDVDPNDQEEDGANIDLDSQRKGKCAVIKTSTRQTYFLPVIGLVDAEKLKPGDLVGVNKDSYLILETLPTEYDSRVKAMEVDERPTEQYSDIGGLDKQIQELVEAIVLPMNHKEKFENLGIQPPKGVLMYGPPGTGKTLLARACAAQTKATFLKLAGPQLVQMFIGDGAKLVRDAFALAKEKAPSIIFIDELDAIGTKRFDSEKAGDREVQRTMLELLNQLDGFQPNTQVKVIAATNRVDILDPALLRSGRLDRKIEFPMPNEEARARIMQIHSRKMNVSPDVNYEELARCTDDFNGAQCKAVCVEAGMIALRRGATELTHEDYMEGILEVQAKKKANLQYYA
UniProt P35998: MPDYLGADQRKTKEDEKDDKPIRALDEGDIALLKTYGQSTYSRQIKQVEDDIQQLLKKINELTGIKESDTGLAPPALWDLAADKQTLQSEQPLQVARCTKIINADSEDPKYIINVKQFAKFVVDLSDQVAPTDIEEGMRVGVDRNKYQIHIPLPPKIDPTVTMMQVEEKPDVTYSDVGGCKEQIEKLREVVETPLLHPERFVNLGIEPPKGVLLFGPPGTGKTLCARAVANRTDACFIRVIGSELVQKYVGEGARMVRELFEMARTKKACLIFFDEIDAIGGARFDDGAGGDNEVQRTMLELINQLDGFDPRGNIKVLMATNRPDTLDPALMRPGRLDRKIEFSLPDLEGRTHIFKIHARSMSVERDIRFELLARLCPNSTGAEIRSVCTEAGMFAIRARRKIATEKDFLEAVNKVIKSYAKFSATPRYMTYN

Key:
Test in all cases: log2 fold change, soluble protein after heating vs DMSO (PISA); higher = thermal stabilisation; K562 cells, 10 uM, 30 min; active = over 0.2 and 3.5 SD of the protein, either way, in both replicates (recomputed)
[1] = compound: CC1=C(C=C(C=C1)NC(=O)C2=CC(=CC=C2)C(C)(C)C#N)NC3=CC4=C(C=C3)N=CN(C4=O)C
In short: (§1)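 Soluble protein was defined as the supernatant after 21,000xg for 90 min. It came from K562 cells at 2×10^6 cells/mL given 10 μM compound for 30 min, heated in aliquots for 3 min across 48°C-58°C, pooled, and extracted in PBS with 0.5% NP-40 at 4°C, and was quantified by TMTpro 16plex LC-MS/MS with equalised channel sums. Thermal stability against control samples, from duplicates, is reported as log2 fold change.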

[2] = compound: CC1=C(C=C(C=C1)NC(=O)C2=CC(=CC=C2)N(C)C)NC(=O)C3=CC=C(C=C3)O
In short: as §1

[3] = compound: CC1=CC=C(C=C1)SC2=C3C=C(SC3=CN=C2)C(=O)N
In short: as §1

[4] = compound: CC1=NC(=CC=C1)C2=C(N=C(N2)C(C)(C)C)C3=CC4=NC=CN=C4C=C3
In short: as §1

Nexturastat A = compound: CCCCN(Cc1ccc(C(=O)NO)cc1)C(=O)Nc1ccccc1 [Nexturastat A]
In short: as §1

vemurafenib = compound: CCCS(=O)(=O)Nc1ccc(F)c(C(=O)c2c[nH]c3ncc(-c4ccc(Cl)cc4)cc23)c1F [vemurafenib]
In short: as §1

[5] = compound: CCCS(=O)(=O)Nc1ccc(F)c(C(=O)c2c[nH]c3ncc(Cl)cc23)c1F
In short: as §1

[6] = compound: CCCc1cc(C)[nH]c(=O)c1CNC(=O)c1cc(-c2ccnc(N3CCN(C)CC3)c2)cc2c1cnn2C(C)C
In short: as §1

givinostat = compound: CCN(CC)Cc1ccc2cc(COC(=O)Nc3ccc(C(=O)NO)cc3)ccc2c1 [givinostat]
In short: as §1

barasertib = compound: CCN(CCCOc1ccc2c(Nc3cc(CC(=O)Nc4cccc(F)c4)[nH]n3)ncnc2c1)CCOP(=O)(O)O [barasertib]
In short: as §1

[7] = compound: CC[C@@H]1C(=O)N(C)c2cnc(Nc3ccc(C(=O)NC4CCN(C)CC4)cc3OC)nc2N1C1CCCC1
In short: as §1

volasertib = compound: CC[C@@H]1C(=O)N(C)c2cnc(Nc3ccc(C(=O)N[C@H]4CC[C@H](N5CCN(CC6CC6)CC5)CC4)cc3OC)nc2N1C(C)C [volasertib]
In short: as §1

[8] = compound: CC[C@H](C)N1C=C(C2=C(C=C(C=C21)C3=CN=C(C=C3)N4CCNCC4)C(=O)NCC5=C(C=C(NC5=O)C)C)C
In short: as §1

epoxomicin = compound: CC[C@H](C)[C@@H](C(=O)N[C@@H]([C@@H](C)O)C(=O)N[C@@H](CC(C)C)C(=O)[C@]1(CO1)C)NC(=O)[C@H]([C@@H](C)CC)N(C)C(=O)C [epoxomicin]
In short: as §1

[9] = compound: CCn1cc(-c2ccnc3[nH]c(-c4cccc(CN(C)C)c4)cc23)c(-c2ccc(NC(=O)N(C)C)cc2)n1
In short: as §1

[10] = compound: CN(C)CC(=O)Nc1ccc2[nH]c(=O)c3ccccc3c2c1
In short: as §1

[11] = compound: CN1C2=C(C3=C1C(=O)N(N=C3)CC4=CC(=CC=C4)N)SC(=C2)S(=O)C
In short: as §1

[12] = compound: CN1CCC(CNc2ccc3ncc(-c4cccc(OC(F)(F)F)c4)n3n2)CC1
In short: as §1

[13] = compound: CCn1c(C(=O)N(C2CC2)C2CC2)cc2c3c(ncn3C)c(Nc3cc(C)n(C)n3)nc21
In short: as §1

rosiglitazone = compound: CN(CCOC1=CC=C(C=C1)C[C@H]2C(=O)NC(=O)S2)C3=CC=CC=N3 (racemic) [rosiglitazone]
In short: as §1

Measured: log2 fold change

PXK (UniProt Q7Z7A4)
inactive: [1] 0.017 | [2] -0.059 | [3] -0.041 | [4] 0.011 | Nexturastat A -0.018 | vemurafenib 0.017 | [5] 0.071 | [6] -0.046 | givinostat 0.022 | barasertib 0.002 | [7] -0.136 | volasertib -0.077 | [8] 0.04 | epoxomicin 0.029 | [9] -0.012 | [10] 0.027 | [11] -0.028 | [12] -0.208

PYGO2 (UniProt Q9BRQ0)
inactive: [1] 0.104 | [2] 0.032 | [3] -0.115 | [4] 0.011 | Nexturastat A 0.02 | vemurafenib -0.12 | [5] 0.072 | [6] 0.003 | givinostat -0.039 | barasertib 0.05 | [7] -0.035 | volasertib -0.196 | [8] -0.018 | epoxomicin -0.062 | [13] 0.057 | [9] 0.074 | [10] -0.174 | rosiglitazone 0.032 | [12] 0

PTPN23 (UniProt Q9H3S7)
inactive: [1] -0.062 | [2] -0.049 | [3] -0.009 | [4] 0.002 | Nexturastat A -0.015 | vemurafenib 0.025 | [5] 0.051 | [6] 0.088 | givinostat 0.107 | barasertib 0.047 | [7] -0.163 | [8] 0.019 | epoxomicin 0.013 | [9] -0.006 | [10] 0.073 | [11] 0.016 | [12] -0.106
active: volasertib -0.453

PTP4A1 (UniProt Q93096)
inactive: [1] -0.007 | [2] -0.005 | [3] 0.023 | [4] 0.023 | Nexturastat A 0.002 | vemurafenib 0 | [5] 0.062 | [6] -0.024 | givinostat -0.003 | barasertib 0.035 | [7] 0.025 | volasertib 0.019 | [8] 0.036 | epoxomicin 0.065 | [9] -0.055 | [10] -0.044 | [11] -0.043 | [12] 0.022

PSMD6 (UniProt Q15008)
inactive: [1] -0.007 | [2] -0.004 | [3] -0.045 | [4] -0.045 | Nexturastat A 0.108 | vemurafenib -0.055 | [5] -0.014 | [6] 0.01 | givinostat -0.034 | barasertib -0.012 | [7] 0.09 | volasertib 0.18 | [8] 0.01 | epoxomicin -0.247 | [9] 0.063 | [10] -0.023 | [11] 0.029 | [12] 0.061

PTTG1 (UniProt O95997)
active: epoxomicin 0.293
inactive: [1] 0.007 | [2] -0.353 | [3] 0.02 | [4] -0.077 | Nexturastat A 0.098 | vemurafenib -0.081 | [5] -0.045 | [6] -0.021 | givinostat 0.068 | barasertib 0.023 | [7] 0.105 | volasertib 0.124 | [8] 0.008 | [9] 0.057 | [10] -0.02 | [11] 0.008 | [12] -0.092

PTRHD1 (UniProt Q6GMV3)
inactive: [1] -0.051 | [2] -0.098 | [3] 0.017 | [4] 0.022 | Nexturastat A 0.074 | vemurafenib 0.059 | [5] -0.024 | [6] -0.024 | givinostat -0.008 | barasertib 0.034 | [7] 0.106 | volasertib 0.037 | [8] -0.028 | [9] 0.086 | [10] -0.056 | [11] 0.019 | [12] 0.078
active: epoxomicin 0.415

PUS7L (UniProt Q9H0K6)
inactive: [1] 0.043 | [2] 0.011 | [3] -0.031 | [4] -0.002 | Nexturastat A -0.006 | vemurafenib -0.001 | [5] 0.015 | [6] -0.035 | givinostat -0.039 | barasertib 0.028 | [7] 0.04 | volasertib -0.038 | [8] 0.028 | epoxomicin -0.034 | [13] 0.015 | [9] 0.046 | [10] -0.005 | rosiglitazone 0.024 | [11] -0.022 | [12] 0.033

PSMD11 (UniProt O00231)
inactive: [1] 0.048 | [2] -0.005 | [3] 0.017 | [4] -0.006 | Nexturastat A 0.124 | vemurafenib -0.031 | [5] 0.058 | [6] 0.047 | givinostat -0.027 | barasertib -0.056 | [7] 0.011 | volasertib 0.187 | [8] 0.036 | epoxomicin -0.262 | [9] 0 | [10] 0 | [11] 0.018 | [12] 0.053

PSMD9 (UniProt O00233)
inactive: [1] -0.012 | [2] 0.018 | [3] 0.021 | [4] 0.012 | Nexturastat A -0.068 | vemurafenib -0.014 | [5] -0.021 | [6] -0.016 | givinostat -0.004 | barasertib 0 | [7] -0.011 | volasertib 0.086 | [8] 0.004 | epoxomicin -0.04 | [9] -0.137 | [10] -0.01 | [11] -0.034 | [12] 0.127

PYGB (UniProt P11216)
active: [1] -0.284 | volasertib -0.572
inactive: [2] 0.015 | [3] 0.008 | [4] 0.005 | Nexturastat A -0.074 | vemurafenib 0.009 | [5] -0.023 | [6] -0.044 | givinostat 0.012 | barasertib 0.001 | [7] -0.199 | [8] 0.036 | epoxomicin -0.045 | [9] 0.023 | [10] 0.012 | [11] 0.021 | [12] -0.071

QRSL1 (UniProt Q9H0R6)
inactive: [1] -0.001 | [2] -0.079 | [3] 0.018 | [4] 0.041 | Nexturastat A -0.09 | vemurafenib 0.086 | [5] 0.061 | [6] 0.093 | givinostat 0.033 | barasertib 0.044 | [7] 0.044 | volasertib -0.167 | [8] 0.069 | epoxomicin 0.027 | [9] -0.029 | [10] 0.023 | [11] -0.053 | [12] -0.095

PSMB4 (UniProt P28070)
inactive: [1] -0.026 | [2] 0.02 | [3] -0.075 | [4] -0.031 | Nexturastat A 0.023 | vemurafenib -0.027 | [5] -0.029 | [6] 0.008 | givinostat -0.008 | barasertib -0.052 | [7] 0.073 | volasertib 0.114 | [8] -0.043 | epoxomicin -0.202 | [9] 0.031 | [10] -0.028 | [11] 0.021 | [12] 0.057

PSMC4 (UniProt P43686)
active: epoxomicin -0.379
inactive: [1] 0.016 | [2] 0.013 | [3] -0.049 | [4] -0.036 | Nexturastat A 0.03 | vemurafenib -0.066 | [5] -0.083 | [6] 0.084 | givinostat -0.059 | barasertib -0.042 | [7] 0.033 | volasertib 0.2 | [8] -0.021 | [9] 0.086 | [10] -0.033 | [11] 0.033 | [12] 0.06

PSPC1 (UniProt Q8WXF1)
inactive: [1] 0.022 | [2] 0.011 | [3] 0.01 | [4] 0.007 | Nexturastat A 0.053 | vemurafenib -0.003 | [5] 0.135 | [6] 0.167 | givinostat 0.036 | barasertib 0.01 | [7] -0.046 | volasertib -0.167 | [8] 0.1 | epoxomicin 0.031 | [9] -0.054 | [10] 0.012 | [11] 0.041 | [12] 0.029

PSMC3 (UniProt P17980)
inactive: [1] 0.013 | [2] 0.02 | [3] -0.024 | [4] -0.051 | Nexturastat A 0.034 | vemurafenib -0.063 | [5] -0.055 | [6] 0.002 | givinostat -0.034 | barasertib -0.059 | [7] 0.032 | volasertib 0.179 | [8] -0.021 | [9] 0.079 | [10] -0.031 | [11] 0.021 | [12] 0.018
active: epoxomicin -0.319

PSMC2 (UniProt P35998)
inactive: [1] 0.011 | [2] 0.02 | [3] -0.012 | [4] -0.069 | Nexturastat A 0.011 | vemurafenib -0.014 | [5] -0.041 | [6] 0.036 | givinostat -0.032 | barasertib -0.053 | [7] 0.042 | volasertib 0.169 | [8] -0.019 | [9] 0.024 | [10] -0.018 | [11] 0.023 | [12] 0.039
active: epoxomicin -0.324

PRUNE1 (UniProt Q86TP1)
active: volasertib -0.417
inactive: [1] 0.056 | [2] -0.014 | [3] -0.005 | [4] -0.028 | Nexturastat A 0.161 | vemurafenib 0.129 | [5] 0.036 | [6] 0.022 | givinostat 0.056 | barasertib 0.105 | [7] -0.083 | [8] 0.067 | epoxomicin 0.012 | [9] -0.024 | [10] -0.018 | [11] -0.079 | [12] -0.089

2 entries drawn at random from the list so far:
PSMC3 (UniProt P17980)
inactive: [1] 0.013 | [2] 0.02 | [3] -0.024 | [4] -0.051 | Nexturastat A 0.034 | vemurafenib -0.063 | [5] -0.055 | [6] 0.002 | givinostat -0.034 | barasertib -0.059 | [7] 0.032 | volasertib 0.179 | [8] -0.021 | [9] 0.079 | [10] -0.031 | [11] 0.021 | [12] 0.018
active: epoxomicin -0.319

PSMC4 (UniProt P43686)
active: epoxomicin -0.379
inactive: [1] 0.016 | [2] 0.013 | [3] -0.049 | [4] -0.036 | Nexturastat A 0.03 | vemurafenib -0.066 | [5] -0.083 | [6] 0.084 | givinostat -0.059 | barasertib -0.042 | [7] 0.033 | volasertib 0.2 | [8] -0.021 | [9] 0.086 | [10] -0.033 | [11] 0.033 | [12] 0.06
